PubChem BioAssay AID1259302 – Sanger Institute | 2017

Assay: 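Kinome siRNAs acting in synergy with BYL719, cetuximab or trametinib in colorectal cancer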 (follow-up of hits)
System: human SW1116 colorectal cancer cells
Reagent: single siRNA against human genes
Conditions: anchor drugs BYL719 at 1 µM, cetuximab at 5 µg/ml or trametinib at 10 nM, each compared with DMSO vehicle; exposure time not given
Measured: 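Viability relative to a pooled non-targeting control siRNA, averaged over replicates; for each anchor drug a synergy score weighs the joint effect against siRNA and drug alone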
Direction: synergy score with trametinib and synergy score with BYL719 and synergy score with cetuximab: higher = stronger synthetic lethal interaction with the drug; viability, siRNA with DMSO and viability, siRNA with trametinib: higher = more viable cells
Call rule: 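Active means a synergy score over 0.10 with any one of the three anchor drugs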
Here is an unselected part of 160 reagents. 122 of all reagents (76%) were called active. 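Most active calls come from the trametinib arm; viability under BYL719 or cetuximab treatment is not printed.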 Unmarked entries are inactive. No viability above 1 is reported: the scale is capped. No sequences are given here. Not given: the amount of reagent, the time to read-out.

no.	gene	PubChem SID	synergy score with trametinib	synergy score with BYL719	synergy score with cetuximab	viability, siRNA with DMSO	viability, siRNA with trametinib
1	MARK3	SID56475931	0.0797	-0.204	-0.141	0.736	0.407
2	MARK3	SID56475932	0.132 (active)	-0.152	-0.114	0.839	0.424
3	MARK3	SID56475933	0.191 (active)	-0.0464	-0.00264	0.729	0.292
4	MARK3	SID56475934	0.249 (active)	-0.193	-0.0378	0.698	0.212
5	SYNCRIP	SID134270601	0.248 (active)	-0.185	0.0795	0.576	0.132
6	SYNCRIP	SID134270602	0.139 (active)	-0.105	-0.0124	0.828	0.409
7	SYNCRIP	SID134270603	0.199 (active)	0.037	0.28	0.691	0.258
8	SYNCRIP	SID134270604	0.159 (active)	-0.0036	0.0514	0.925	0.453
9	PIK3CA	SID56475149	0.217 (active)	0.157	0.165	0.837	0.337
10	PIK3CA	SID56475150	0.136 (active)	0.00801	0.0104	0.697	0.325
11	PIK3CA	SID135611211	0.303 (active)	0.1	-0.285	0.777	0.211
12	PIK3CA	SID135611212	0.13 (active)	-0.0628	0.161	0.864	0.442

Already shown: 2 of the entries above.
no.	gene	PubChem SID	synergy score with trametinib	synergy score with BYL719	synergy score with cetuximab	viability, siRNA with DMSO	viability, siRNA with trametinib
8	SYNCRIP	SID134270604	0.159 (active)	-0.0036	0.0514	0.925	0.453
9	PIK3CA	SID56475149	0.217 (active)	0.157	0.165	0.837	0.337

More records follow:
no.	gene	PubChem SID	synergy score with trametinib	synergy score with BYL719	synergy score with cetuximab	viability, siRNA with DMSO	viability, siRNA with trametinib
13	CHD4	SID134247681	0.0426	0.0228	0.0461	0.45	0.255
14	CHD4	SID134247682	0.262 (active)	-0.0556	0.23	0.605	0.139
15	CHD4	SID134247683	0.131 (active)	-0.171	0.0833	0.679	0.318
16	CHD4	SID134247684	0.171 (active)	-0.153	0.123	0.774	0.341
17	ACVR1	SID56476923	0.00782	-0.124	-0.129	1	0.654
18	ACVR1	SID56476924	0.181 (active)	-0.0176	0.163	0.95	0.448
19	ACVR1	SID56476925	0.215 (active)	-0.124	0.0699	1	0.447
20	ACVR1	SID152154144	0.262 (active)	-0.037	0.141	1	0.4
